Patent US20240325335A1, “BIOLOGICALLY COMPATIBLE, BIOFILM DISRUPTING COMPOSITION AND METHODS” (priority 2023, published 2024)
Some entries share one result that the patent states for a list of compounds.

What was measured:
[1] = tested on: Epidermophyton floccosum (ATCC 15693; TPPS 1243), planktonic; assay: P #5A planktonic antifungal testing; assay type: cell-based; conditions: all contact times incl. time zero; limit of 4.3-4.7 log growth
C. trachomatis = conditions: Bergsson, '98; cited from earlier work

| Structure (SMILES) | LR against planktonic E. floccosum [1] | reduction in the infectivity titer / inactivation (C. trachomatis) [log 10] |
| --- | --- | --- |
| CCCCCCCCCCCC(=O)OCC(O)CO (centres unmarked) [GML, glycerol monolaurate] | > 4 | – |
| CCCCCCCCCC(=O)O [capric acid] | – | > 4 |
